From PMC9123286 (The Journal of Cell Biology, 2022) come the findings set out here.

Chains of the proteins cited; added tags and fusions are not shown.
UniProt Q01590: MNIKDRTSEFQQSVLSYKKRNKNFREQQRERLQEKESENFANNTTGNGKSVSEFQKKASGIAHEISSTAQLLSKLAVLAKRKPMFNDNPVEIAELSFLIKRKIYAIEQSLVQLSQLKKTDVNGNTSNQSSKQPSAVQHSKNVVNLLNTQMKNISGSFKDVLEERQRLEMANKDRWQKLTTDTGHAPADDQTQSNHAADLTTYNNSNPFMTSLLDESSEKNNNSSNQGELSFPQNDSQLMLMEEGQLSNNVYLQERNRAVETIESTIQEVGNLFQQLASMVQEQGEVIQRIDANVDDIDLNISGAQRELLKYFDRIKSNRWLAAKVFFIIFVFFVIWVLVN

Changes are numbered by the printed parent chain. Results are given in words; binding and its absence hold for the method and conditions named. Binding seen in cells or lysates may run through a third protein. Some binding calls cover weakened binding; strength is not graded here. Sequences can lack the tags named with a protein.

In assay [1] the target is T1, Get3 D57E F190D I193D-TEV-GFP (S. cerevisiae) (UniProt Q12154).
T1 sequence: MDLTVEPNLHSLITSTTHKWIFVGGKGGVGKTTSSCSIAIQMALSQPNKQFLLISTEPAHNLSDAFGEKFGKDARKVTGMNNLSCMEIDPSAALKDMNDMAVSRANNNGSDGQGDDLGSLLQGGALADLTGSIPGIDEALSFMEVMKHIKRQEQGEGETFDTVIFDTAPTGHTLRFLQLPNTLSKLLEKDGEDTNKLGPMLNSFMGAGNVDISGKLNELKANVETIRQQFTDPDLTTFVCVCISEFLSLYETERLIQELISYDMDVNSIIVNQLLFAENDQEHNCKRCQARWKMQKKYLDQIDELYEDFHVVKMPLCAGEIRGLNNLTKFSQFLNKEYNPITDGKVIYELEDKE
Description: co-IP; lysates from cells expressing HA–Erg1 (endogenous promoter) and Get3 DE–TEV–GFP or Get3 DE FIDD–TEV–GFP; anti-GFP MicroBeads, no detergent, TEV elution; immunoblot, signal normalised to Get3 in the eluate and to the input. (In western blotting, separated proteins are transferred to a membrane and probed.)

The target in assay [2] is T2, Get3 D57E-TEV-GFP (S. cerevisiae, UniProt Q12154 1-354, D57E).
T2 construct: Get3, cytosolic ATPase of the GET pathway, S. cerevisiae; ATPase-impaired client trap variant D57E; Captured on anti-GFP beads and eluted by TEV cleavage; the oligomeric state in the lysate was not measured; also called Get3 DE; Get3 D57E (DE); source: yeast (BY4741 background), ectopically expressed, in lysate made without detergent; not shown: TEV site-GFP, C-terminal, kept
T2 sequence (looked up): T1 sequence with D190F, D193I
The assay is described as above.

Assay [3] deals with T2, Get3 D57E-TEV-GFP. The assay is described as follows: co-IP; lysates from Δget3 cells ectopically expressing Get3 DE-TEV-GFP and HA-tagged Erg1 full length, ΔC, Δα1 or Δα2; anti-GFP MicroBeads, no detergent, TEV elution; immunoblot, signal normalised to Get3 in the eluate and to the input.

Take Sed5 (from UniProt Q01590 1-340): the binding result (in assay [1]; in the assay with Get3 D57E-TEV-GFP [2]) was “binds” each time.

B1: N-terminally HA-tagged Erg1 (full length) (enzyme, S. cerevisiae, UniProt P32476 1-496, looked up)
chain: MSAVNVAPELINADNTITYDAIVIGAGVIGPCVATGLARKGKKVLIVERDWAMPDRIVGELMQPGGVRALRSLGMIQSINNIEAYPVTGYTVFFNGEQVDIPYPYKADIPKVEKLKDLVKDGNDKVLEDSTIHIKDYEDDERERGVAFVHGRFLNNLRNITAQEPNVTRVQGNCIEILKDEKNEVVGAKVDIDGRGKVEFKAHLTFICDGIFSRFRKELHPDHVPTVGSSFVGMSLFNAKNPAPMHGHVILGSDHMPILVYQISPEETRILCAYNSPKVPADIKSWMIKDVQPFIPKSLRPSFDEAVSQGKFRAMPNSYLPARQNDVTGMCVIGDALNMRHPLTGGGMTVGLHDVVLLIKKIGDLDFSDREKVLDELLDYHFERKSYDSVINVLSVALYSLFAADSDNLKALQKGCFKYFQRGGDCVNKPVEFLSGVLPKPLQLTRVFFAVAFYTIYLNMEERGFLGLPMALLEGIMILITAIRVFTPFLFGELIG
notes: Erg1, squalene monooxygenase, S. cerevisiae; also called HA–Erg1; source: yeast, expressed from the endogenous ERG1 promoter (genomic) or ectopically in Δget3 cells, in lysate; not shown: HA, N-terminal, kept
In the case of B1, the binding entry (in assay [1]; in the assay with Get3 D57E-TEV-GFP [3]) was “binds” in each case.
